Results are given in words; binding and its absence hold for the method and conditions named. Some binding calls cover weakened binding; strength is not graded here.
Tests used:
RelA (p65) in 293 cells [1] = biological target: RelA (p65) in 293 cells (UniProt Q04206); assay: immunoprecipitation with p65 antibody from PRMT2 or PRMT2-N transfected 293 whole cell extracts, Western blot for p50
RelA (p65) in 293 cells [2] = biological target: RelA (p65) in 293 cells (UniProt Q04206); assay: immunoprecipitation with anti-p65 antibody from transfected 293 cell nuclear extracts, Western blot for p50

Chains of the proteins cited; added tags and fusions are not shown. Residues count along the entry.
UniProt Q04206: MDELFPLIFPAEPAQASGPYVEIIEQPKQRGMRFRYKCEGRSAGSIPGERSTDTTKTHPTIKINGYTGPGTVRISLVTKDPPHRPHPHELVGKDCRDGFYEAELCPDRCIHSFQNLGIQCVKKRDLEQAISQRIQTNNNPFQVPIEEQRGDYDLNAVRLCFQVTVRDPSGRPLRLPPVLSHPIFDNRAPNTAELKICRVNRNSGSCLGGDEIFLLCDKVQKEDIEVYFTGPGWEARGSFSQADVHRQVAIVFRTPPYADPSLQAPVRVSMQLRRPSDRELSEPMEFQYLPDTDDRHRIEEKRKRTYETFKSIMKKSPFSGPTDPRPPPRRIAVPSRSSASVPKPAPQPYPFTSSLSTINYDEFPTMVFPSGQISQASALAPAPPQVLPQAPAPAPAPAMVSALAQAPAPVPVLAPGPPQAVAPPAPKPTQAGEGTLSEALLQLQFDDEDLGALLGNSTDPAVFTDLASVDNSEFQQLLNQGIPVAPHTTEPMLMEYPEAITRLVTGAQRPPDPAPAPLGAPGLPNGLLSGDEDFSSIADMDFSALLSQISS
UniProt P19838, residues 1-433: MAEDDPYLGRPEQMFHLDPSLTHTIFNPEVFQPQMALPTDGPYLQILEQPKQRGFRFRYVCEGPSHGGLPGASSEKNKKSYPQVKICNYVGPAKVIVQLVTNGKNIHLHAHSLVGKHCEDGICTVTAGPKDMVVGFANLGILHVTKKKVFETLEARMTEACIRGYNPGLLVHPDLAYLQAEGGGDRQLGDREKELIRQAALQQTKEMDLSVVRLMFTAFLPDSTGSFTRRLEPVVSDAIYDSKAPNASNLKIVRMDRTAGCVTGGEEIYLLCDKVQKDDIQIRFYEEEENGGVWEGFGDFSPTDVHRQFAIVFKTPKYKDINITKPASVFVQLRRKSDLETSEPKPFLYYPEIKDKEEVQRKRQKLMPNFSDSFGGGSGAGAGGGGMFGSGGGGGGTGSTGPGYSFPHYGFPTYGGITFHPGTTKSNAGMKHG

**Q.** Which binding (RelA (p65) in 293 cells [1]) does the source give for “NF-κB1 (p50) in 293 cells (from UniProt P19838 1-433)” here?
**A.** Its binding is “binds”.

**Q.** And the binding (RelA (p65) in 293 cells [2])?
**A.** Its binding is “binds”.
